Data from the supplement of paper PMC3334620.
In all, about 33,000 sequences were measured (“E-score (-0.5 to 0.5)”: median about -0.015, highest 2% from about 0.3 on). Some of the results follow.

The sequences below were run against T1, Abf1 (UniProt P14164) (assay: PBM E-score (8-mer binding enrichment) (E-score (-0.5 to 0.5)); higher = stronger / more preferred TF binding). Settings: protein concentration: 200 nM; construct: GST-full length.
T1 sequence: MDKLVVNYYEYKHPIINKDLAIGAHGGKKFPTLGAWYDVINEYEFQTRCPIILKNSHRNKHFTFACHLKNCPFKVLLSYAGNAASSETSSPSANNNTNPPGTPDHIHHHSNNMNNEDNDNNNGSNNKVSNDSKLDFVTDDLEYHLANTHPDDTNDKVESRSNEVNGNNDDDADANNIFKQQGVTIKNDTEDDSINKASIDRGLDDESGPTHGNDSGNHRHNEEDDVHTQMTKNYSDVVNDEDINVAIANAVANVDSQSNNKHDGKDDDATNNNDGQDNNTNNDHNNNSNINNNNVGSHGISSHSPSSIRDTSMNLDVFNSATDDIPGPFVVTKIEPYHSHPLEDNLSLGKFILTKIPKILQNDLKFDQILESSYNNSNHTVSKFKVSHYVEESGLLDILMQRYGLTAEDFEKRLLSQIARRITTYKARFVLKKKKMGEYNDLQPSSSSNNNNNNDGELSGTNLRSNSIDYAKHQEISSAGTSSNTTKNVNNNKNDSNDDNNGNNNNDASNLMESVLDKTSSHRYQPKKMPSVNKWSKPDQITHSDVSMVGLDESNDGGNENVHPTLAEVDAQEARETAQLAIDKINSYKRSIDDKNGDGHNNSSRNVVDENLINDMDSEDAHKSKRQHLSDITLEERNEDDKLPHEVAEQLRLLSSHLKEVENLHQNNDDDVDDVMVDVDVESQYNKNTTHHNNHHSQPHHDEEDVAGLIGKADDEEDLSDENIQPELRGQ
Experimental: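 Universal 'all 10-mer' protein binding microarrays (Agilent AMADID 015681) probed with GST-tagged S. cerevisiae TFs (full-length or DBD) made by in vitro transcription/translation (PURExpress), about 100-200 nM. Bound TF was detected with fluorescent anti-GST. Each ungapped 8-mer (which stands for itself and its reverse complement) is scored by the PBM enrichment score (E-score), a modified Wilcoxon-Mann-Whitney statistic from -0.5 to +0.5, computed with the Universal PBM Analysis Suite. Scale: above 0.35 generally sequence-specific binding.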

Row | Sequence | PBM E-score
1 | AATCATTC | 0.24
2 | ATCGGTGC | -0.0451
3 | AACTCGCC | -0.085
4 | ACTAGACC | 0.0436
5 | ACACAACG | 0.063
6 | ATCGCTAA | 0.28
7 | CGAGGGCA | -0.0824
8 | GCACACGA | 0.303
9 | CTGCTAAG | -0.323
10 | AGACCGAA | -0.0106
11 | GAATAGAA | 0.093
12 | ACGTACGG | 0.328
13 | GATATCGC | 0.341
14 | ACGCATGG | -0.155
15 | AAGGCATA | -0.0159
16 | AAGGCAGT | 0.0202
17 | GTGGGTCA | -0.0817
18 | AAGCCGTA | 0.193
19 | CATTGAAA | 0.168
20 | CCCATGGA | -0.19
21 | ATACATGA | -0.00552
22 | CGCCAAGA | -0.0926

Row | Sequence | PBM E-score
23 | CAATTCTA | -0.0487
24 | ACCTGCAA | -0.133
25 | AGCTGTAC | -0.345
26 | ATTCATGG | -0.165
27 | GCCGCTAA | -0.0689
28 | TTATTGAA | 0.115
29 | CGGTGGCA | -0.0877
30 | AGATGTGC | -0.159
31 | AAAACCAT | -0.0494
32 | CGACCTTA | 0.117
33 | AAGTTCTA | -0.0163
34 | AATAGGTA | 0.106
35 | CCGCCTCC | -0.2
36 | AGCACCAG | -0.0249
37 | GCACCACA | -0.0375
38 | TAACGAGA | 0.295
39 | CCGATGTC | 0.159
40 | CAGCTAAC | -0.199
41 | TCATCTCA | 0.235
42 | GGAATGCC | -0.154
43 | AACTTACT | 0.0556
44 | ACGCCAGG | -0.192

Part of the list above, tab-delimited:
Row	Sequence	PBM E-score
12	ACGTACGG	0.328
13	GATATCGC	0.341
14	ACGCATGG	-0.155
15	AAGGCATA	-0.0159
16	AAGGCAGT	0.0202
17	GTGGGTCA	-0.0817

Further entries:

Row | Sequence | PBM E-score
45 | ATATCTTA | 0.246
46 | ACACTGGG | -0.134
47 | CTATTGTA | 0.118
48 | AAAGGGAG | -0.163
49 | ACCTAGGA | 0.00148
50 | GCCGGCAA | -0.135
51 | GAGTCACC | -0.151
52 | CGCTTGTA | -0.0156
53 | ATAATTTA | 0.211
54 | ACGTCCAG | -0.0289
55 | AGAAGACT | -0.0993
56 | AATACTCT | 0.0423
57 | ATCCCTCA | -0.0454
58 | AGTGCGAA | -0.196
59 | CTAGCCAA | -0.0616
60 | CATTTGCG | -0.00415
61 | ATTACGGC | 0.184
62 | GTTGGAAA | 0.0804
63 | GCTCATTA | 0.0158
64 | CGTACCCA | 0.0561
65 | TACGTTAA | 0.132
66 | AGAATCTC | -0.0695

Row | Sequence | PBM E-score
67 | ATACCTTG | 0.0637
68 | AAACAGAG | -0.0224
69 | CCGGCCCG | -0.279
70 | GGTATACA | -0.025
71 | ATAGGAAC | 0.108
72 | AGGCATAT | 0.1
73 | GTGCTATA | 0.0607
74 | CTTCAAGC | -0.0226
75 | GAGCCCTC | -0.173
76 | ACTGCAGG | -0.126
77 | GGGTTCCA | -0.176
78 | ACGATTGA | 0.137
79 | CCACCCGA | -0.0446
80 | CGACCGTA | 0.151
81 | CAGAGTTA | 0.0296
82 | CGGATGTC | 0.0511
83 | ACGGAAGT | 0.143
84 | AACGTTCT | 0.125
85 | ATGCCATA | -0.00719
86 | AGAGGGCT | -0.283
